Measurements: US7592309B2, “Method of using a peptide having analgesic and antitumor activity from scorpion” (priority 2001, dated 2009)

Tested on: writhing response of mouse (acetic acid writhing model)
Settings: in vivo, iv
Description: The above samples were administrated by stomach infusion in a dose of 0.1 mg/kg weight to 16.0 mg/kg weight. […] In the mouse heat plate model, the above samples were administrated by intravenous injection in a dose of 0.1 mg/kg weight to 16.0 mg/kg weight. […] For example, the peptide of SDS-PAGE single band obtained in example 1 and 2 were injected intravenously at 0.6 mg/kg weight.

`CN1CC[C@]23c4c5ccc(O)c4O[C@H]2[C@@H](O)C=C[C@H]3[C@H]1C5` [morphine, reference compound] was tested, and the “ED50 (median effective dose)” value was 16.0 mg/kg weight.
